We go through four sequences from patent publication US20150344941.

Construct, isoform or probe ends are uncertain for at least one entry. For some of these results: Where a protein sequence is shown, tags need not be part of it.

For data set [1], the system named is Nb.BbvCI nicking endonuclease. Nature of the data set: enzyme reaction in vitro. The note with it: before position 1], purified recombinant protein, protein details: New England Biolabs, letters built from the parent sequence and the stated change.
In data set [2] the target is T1, Exonuclease III (Exo III) (UniProt P09030).
T1 sequence (looked up, limits assumed): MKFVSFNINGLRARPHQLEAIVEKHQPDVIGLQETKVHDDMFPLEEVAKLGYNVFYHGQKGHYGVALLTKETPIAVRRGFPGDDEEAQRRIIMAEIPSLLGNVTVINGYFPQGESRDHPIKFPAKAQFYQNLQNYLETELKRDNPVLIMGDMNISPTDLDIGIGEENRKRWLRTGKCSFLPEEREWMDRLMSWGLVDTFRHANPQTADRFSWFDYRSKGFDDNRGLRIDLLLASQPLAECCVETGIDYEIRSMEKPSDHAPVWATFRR
Nature of the data set: enzyme reaction in vitro. As to conditions: before position 1], purified recombinant protein, protein details: New England Biolabs, letters built from the parent sequence and the stated change.

“AACGAAGCTGAGGATGTGTTCGTT / ATCCTCAGCTTCG [hairpin (6) opened by biomarker DNA (7)]”: the “activity on this sequence” value in data set [1] (5' SH(CH2)6 on hairpin strand, immobilised on mesoporous SiO2 [strand 1 5' end: SH(CH2)6 linker (printed N, left out), nicking read as rhodamine B release, NEBuffer 2, 60 min) was “active”. Take “CAAGGGCAGAAGTCTTCACTGCCCTTGCACACT / AGTGTGCAAGGGCAGTGAAGACTTGATTGT [hairpin (1) opened by biomarker DNA (2)]”: the “activity on this sequence” value in data set [2] (5' SH(CH2)6 on hairpin strand, immobilised on mesoporous SiO2 [strand 1 5' end: SH(CH2)6 linker (printed N, left out), 3'-end digestion read as rhodamine B release, NEBuffer 1, 60 min) was “active”. As to “CCTCCGCAATACTCCGCTGAGGCCTGGGGGAGTATTGCGGAGGAAGGCCTCAGC [ATP-aptamer hairpin (12)]”, the “activity on this sequence” value in data set [1] (5' SH(CH2)6, immobilised on mesoporous SiO2 [5' end: SH(CH2)6 linker (printed N, left out), ATP-triggered opening of hairpin, rhodamine B release, NEBuffer 2, 90 min, folded or branched DNA) is on record as “active”.

For the sequence “CCTCCGCTACCTGGGGGAGTATTGCGGAGGAAGGTA [ATP-aptamer hairpin (11)]”, the “activity on this sequence” value in data set [2] (5' SH(CH2)6, immobilised on mesoporous SiO2 [5' end: SH(CH2)6 linker (printed N, left out), ATP-triggered opening of hairpin, rhodamine B release, NEBuffer 1, 90 min, folded or branched DNA) is “active”.
